Measured values published in US20150342894A1, “DRUG DELIVERY SYSTEMS AND RELATED METHODS OF USE” (Textile-Based Delivery, Inc., priority 2014, published 2015).
Values joined by “and” are separate entries in the source; they are usually repeats but may differ in a detail not shown here. Equal values may be shown once. For at least one compound, name, drawing or mass did not settle the structure.

Assay: Concentration of usnic acid at saturation in the receiving medium
Type: physicochemical
Conditions: C18E80/t-BA/water receiving medium (0.6% tert-butyl acetate, 0.1% nonionic surfactant)

SMILES: CC(=O)c1c(O)c(C)c(O)c2c1OC1=CC(=O)C(C(C)=O)C(=O)C12C (stereo not shown) [usnic acid]
- concentration of usnic acid at saturation: approximately 44 mg/L and ~0.130 mM
